In paper PMC10163288:
The list shows a part of the results.

B1: il2ra_site2_3nfp_normal_mot_HHH_b2_02633_000000119_0001_1_18_H_._HHH_b2_00877_0001_0001000048_0000001_0_af2pred_0001_1_af2pred_swapped (protein)
chain: SSSSSSDLEELREELREAQEKGDEEEARKLVKELALLAIELGDHETFLEALEILEELSSSSSSSS
B2: il2ra_site1_3nfp_normal_mot_cc4219192d8ccd35c40e7b68f9a57604_0001_af2_000000124_0001_16_32_H_._HHH_b2_07250_0001_0001200014_0000001_0_af2pred_0001_af2pred_swapp … (protein)
chain: SSSSSALEWVEELAKKAFENNDKHELRALYKFLRESLEKNGDPEAEEVLKEVEELLRELQSSSSS
B3: il2ra_site1_3nfp_sap_19_mot_HHH_b1_06045_af2_000000189_0001_3_17_H_._HHH_b2_05942_af2_0001_0000100013_0000001_0_0001_af2pred_0001_af2pred_swapped (protein)
chain: DKIEKRLIEEALKLNSLRQLKKILEQLEKRLGDPEEAKELLRQLIEELLGDPEEAKEIVEEIERR
B4: il2ra_site1_3nfp_sap_14_mot_HHH_b1_01683_000000180_0001_19_35_H_._HHH_b2_07870_af2_0001_0000200011_0000001_0_0001 (protein)
chain: DWVHEAARLLDELARKLPPELVQLLYEVMHLVARGNPEEAEKVAEEILELLGDPELKELLELIRK
B5: il2ra_site2_2erj_sap_16_mot_HHH_b1_03572_af2_000000164_0001_41_56_H_._HHH_b1_07106_0001_0000700021_0000001_0_0001_af2pred_0001_1_af2pred_swapped (protein)
chain: SSSSDVEEEIEELIEEAKRLLEEGDPERAREVLQEASQLAFEARDEELLMELLRLLDELFSSSSS
B6: il2ra_site1_1z92_sap_16_mot_HHH_b2_02639_000000145_0001_40_57_H_._ems_3hC_505_0001_af2_0001_0000300022_0000001_0_0001_af2pred_0001_af2pred_swapped (protein)
chain: SSSSDSSRFALEVVLKLVRELGLDLEQIRALLEVAREADEKGLSEEEIEELLREVAEELSSSSSS
B7: il2ra_site1_3nfp_normal_mot_eb5a5eebac1e5153f932cc6c3f4b2787_0001_af2_000000065_0001_18_33_H_._HHH_b2_05299_0001_0000300021_0000001_0 (protein)
chain: SSSSSDEEKREEARELIELARHIEDPEEASEVLEEAYRLLAEVQDRELLEELYRLMREIVSSSSS
B8: il2ra_site2_2erj_sap_23_mot_9983d6beee032e3819f467d055548630_0001_1_000000194_0001_16_32_H_._bee18c9904f98e661b1e98a71a1d884a_0001_af2_0001_0000200025_0000001_0 … (protein)
chain: SSSSNLSEEASELVKRAMEDPEFREEARELLEELLERAEERGDEEAAEVIRAALELLEEGSSSSS
B9: il2ra_site1_3nfp_normal_mot_HHH_b1_05931_000000015_0001_42_57_H_._c0fd2ee23bf7eac90f0defb3b9babf8d_0001_0001_0000600031_0000001_0_af2pred_0001_af2pred (protein)
chain: NEAARILKEVARRGLLSPEALKAIYELAREVLREGDPELERLFREIIELLKRNVEEAEELAEKLR
B10: il2ra_site1_3nfp_sap_17_mot_HHH_b1_08597_000000017_0001_1_18_H_._4428453eb85d3cbdb794fa6b82d21c19_0001_0001_0000100002_0000001_0_0001 (protein)
chain: SSSSSDAFKRALELARRIMELLKEGNPEEAEELIRELEEMAKELNDPAAEWAVEQLERSLSSSSS
B11: il2ra_site2_3nfp_sap_28_mot_HHH_b2_05717_000000156_0001_42_56_H_._HHH_b2_05335_0001_0000100003_0000001_0_0001_af2pred_0001_1_af2pred_swapped (protein)
chain: SSSSSTEEEREEVEELLERAKEITDPEERQELLHRASRIAFEANDEELIELVAEVYVKLSSSSSS
B12: il2ra_site1_2b5i_sap_16_mot_HHH_b1_02182_000000065_0001_18_33_H_._ac710d00df0a15e663fb636f306744b3_0001_1_af2_0001_0000100004_0000001_0_0001 (protein)
chain: SSSSSSDAEEEVKELLEEARQIDDPEENEEVLFEALHLAWRAGNPELRELVEKVAKEISSSSSSS
B13: il2ra_site1_2b5i_normal_mot_HHH_b1_01419_af2_000000080_0001_42_53_H_._HHH_b1_02124_af2_0001_0000300020_0000001_0_af2pred_dldesign_0_af2pred (protein)
chain: SSSSDEKEDEVYDLAQEALRLHLAGKKEEALELLEKALELAKELGNEKLVKEIQDLIERLKSSSS
B14: il2ra_site2_2erj_normal_mot_HHH_b1_08609_af2_000000264_0001_43_56_H_._HHH_b1_00136_0001_0000100011_0000001_0 (protein)
chain: SSSSSVEEAERLLRFVFELASKLGLSLEQAEELIELLQELLERGVSEEEAEEELEKLAEELSSSS
B15: il2ra_site1_2b5i_normal_mot_f5ff40796168375b462bec8614a1db4a_0001_1_000000138_0001_53_65_H_._HHH_b2_04276_0001_0000100001_0000001_0_af2pred_dldesign_0_af2pred (protein)
chain: SSSSSSAKELVEELIEEARRLKEEGKPELARKLLKLARRIAKKHNDEELVAKVERVEAELSSSSS
B16: il2ra_site1_2b5i_sap_21_mot_HHH_b1_07473_af2_000000006_0001_1_20_H_._HHH_b2_06391_af2_0001_0000500030_0000001_0_0001_af2pred_dldesign_0_af2pred (protein)
chain: SSSSDPALRAWVDEALRRARELKEAGKRREALELLEEAYKKASAVDDEENIAKIEELAKELSSSS
B17: il2ra_site2_2erj_normal_mot_ems_3hC_1315_af2_000000245_0001_45_63_H_._HHH_b1_01060_0001_0000200024_0000001_0 (protein)
chain: SSSSDVEERLEEFIQREAERLNDPYLLRFLRRLIEYALKAGASEEEIERALEETIRILEEQSSSS
B18: il2ra_site1_2b5i_normal_mot_HHH_b2_04910_000000118_0001_1_19_H_._HHH_b2_06515_0001_0000200018_0000001_0_af2pred_dldesign_0_af2pred (protein)
chain: SSSSDPYAEILELFKKAEELFKAGKEEEAKKVLEEAIELAKEAGLPALVRFLEAALEAVESSSSS
B19: il2ra_site2_3nfp_sap_21_mot_HHH_b2_05281_000000198_0001_39_56_H_._8592ef0b0fd44ae0c6739e17f45934d2_0001_af2_0001_0000400023_0000001_0_0001_af2pred_0001_af2pred (protein)
chain: SSSSSEDEEEVEKLLREAEEARKKNPTLALQLLAEALLIAIRTNNEELREEVLKVIKELLESSSS

What follows are binders tested against il2ra, P01589 (assay: yeast display titration).

Apparent Kd, inactive:
B1 no binding seen
B2 no binding seen
B3 no binding seen
B4 no binding seen
B5 no binding seen
B6 no binding seen
B7 no binding seen
B8 no binding seen
B9 no binding seen
B10 no binding seen
B11 no binding seen
B12 no binding seen
B13 no binding seen
B14 no binding seen
B15 no binding seen
B16 no binding seen
B17 no binding seen
B18 no binding seen
B19 no binding seen

As a short view, some entries already given:
Apparent Kd, inactive:
B12 no binding seen
B13 no binding seen
